These are yes or no findings as the source states them, for the method shown. Binding seen in cells or lysates may run through a third protein. Some entries that bind do so weakly or less than the wild type. Tags and fused reporters may be left off the sequences shown.
How the values were obtained:
Assay in all cases: co-IP; FLAG-BRUCE (WT, UBC C4666A or ΔUBC) immunoprecipitated with anti-FLAG M2 antibody from lysates of U2OS-shBRUCE stable cell lines co-transfected with Myc-USP8 and GFP-BRIT1; immunoblotting of the IP complex
[1] = target: FLAG-tagged BRUCE UBC mutant C4666A, full length (human) (UniProt Q9NR09)
[2] = target: FLAG-tagged wild type BRUCE, full length (4857 amino acids), shBRUCE-resistant (human) (UniProt Q9NR09)
[3] = target: FLAG-tagged BRUCE with the UBC domain deleted (ΔUBC; aa 4605–4690) (human) (UniProt Q9NR09)

By UniProt entry, the sequences of proteins in these tests, tags left out. Where a name states a change or a piece, a line headed by the entry shows the natural chain unless it says otherwise.
UniProt Q9NR09: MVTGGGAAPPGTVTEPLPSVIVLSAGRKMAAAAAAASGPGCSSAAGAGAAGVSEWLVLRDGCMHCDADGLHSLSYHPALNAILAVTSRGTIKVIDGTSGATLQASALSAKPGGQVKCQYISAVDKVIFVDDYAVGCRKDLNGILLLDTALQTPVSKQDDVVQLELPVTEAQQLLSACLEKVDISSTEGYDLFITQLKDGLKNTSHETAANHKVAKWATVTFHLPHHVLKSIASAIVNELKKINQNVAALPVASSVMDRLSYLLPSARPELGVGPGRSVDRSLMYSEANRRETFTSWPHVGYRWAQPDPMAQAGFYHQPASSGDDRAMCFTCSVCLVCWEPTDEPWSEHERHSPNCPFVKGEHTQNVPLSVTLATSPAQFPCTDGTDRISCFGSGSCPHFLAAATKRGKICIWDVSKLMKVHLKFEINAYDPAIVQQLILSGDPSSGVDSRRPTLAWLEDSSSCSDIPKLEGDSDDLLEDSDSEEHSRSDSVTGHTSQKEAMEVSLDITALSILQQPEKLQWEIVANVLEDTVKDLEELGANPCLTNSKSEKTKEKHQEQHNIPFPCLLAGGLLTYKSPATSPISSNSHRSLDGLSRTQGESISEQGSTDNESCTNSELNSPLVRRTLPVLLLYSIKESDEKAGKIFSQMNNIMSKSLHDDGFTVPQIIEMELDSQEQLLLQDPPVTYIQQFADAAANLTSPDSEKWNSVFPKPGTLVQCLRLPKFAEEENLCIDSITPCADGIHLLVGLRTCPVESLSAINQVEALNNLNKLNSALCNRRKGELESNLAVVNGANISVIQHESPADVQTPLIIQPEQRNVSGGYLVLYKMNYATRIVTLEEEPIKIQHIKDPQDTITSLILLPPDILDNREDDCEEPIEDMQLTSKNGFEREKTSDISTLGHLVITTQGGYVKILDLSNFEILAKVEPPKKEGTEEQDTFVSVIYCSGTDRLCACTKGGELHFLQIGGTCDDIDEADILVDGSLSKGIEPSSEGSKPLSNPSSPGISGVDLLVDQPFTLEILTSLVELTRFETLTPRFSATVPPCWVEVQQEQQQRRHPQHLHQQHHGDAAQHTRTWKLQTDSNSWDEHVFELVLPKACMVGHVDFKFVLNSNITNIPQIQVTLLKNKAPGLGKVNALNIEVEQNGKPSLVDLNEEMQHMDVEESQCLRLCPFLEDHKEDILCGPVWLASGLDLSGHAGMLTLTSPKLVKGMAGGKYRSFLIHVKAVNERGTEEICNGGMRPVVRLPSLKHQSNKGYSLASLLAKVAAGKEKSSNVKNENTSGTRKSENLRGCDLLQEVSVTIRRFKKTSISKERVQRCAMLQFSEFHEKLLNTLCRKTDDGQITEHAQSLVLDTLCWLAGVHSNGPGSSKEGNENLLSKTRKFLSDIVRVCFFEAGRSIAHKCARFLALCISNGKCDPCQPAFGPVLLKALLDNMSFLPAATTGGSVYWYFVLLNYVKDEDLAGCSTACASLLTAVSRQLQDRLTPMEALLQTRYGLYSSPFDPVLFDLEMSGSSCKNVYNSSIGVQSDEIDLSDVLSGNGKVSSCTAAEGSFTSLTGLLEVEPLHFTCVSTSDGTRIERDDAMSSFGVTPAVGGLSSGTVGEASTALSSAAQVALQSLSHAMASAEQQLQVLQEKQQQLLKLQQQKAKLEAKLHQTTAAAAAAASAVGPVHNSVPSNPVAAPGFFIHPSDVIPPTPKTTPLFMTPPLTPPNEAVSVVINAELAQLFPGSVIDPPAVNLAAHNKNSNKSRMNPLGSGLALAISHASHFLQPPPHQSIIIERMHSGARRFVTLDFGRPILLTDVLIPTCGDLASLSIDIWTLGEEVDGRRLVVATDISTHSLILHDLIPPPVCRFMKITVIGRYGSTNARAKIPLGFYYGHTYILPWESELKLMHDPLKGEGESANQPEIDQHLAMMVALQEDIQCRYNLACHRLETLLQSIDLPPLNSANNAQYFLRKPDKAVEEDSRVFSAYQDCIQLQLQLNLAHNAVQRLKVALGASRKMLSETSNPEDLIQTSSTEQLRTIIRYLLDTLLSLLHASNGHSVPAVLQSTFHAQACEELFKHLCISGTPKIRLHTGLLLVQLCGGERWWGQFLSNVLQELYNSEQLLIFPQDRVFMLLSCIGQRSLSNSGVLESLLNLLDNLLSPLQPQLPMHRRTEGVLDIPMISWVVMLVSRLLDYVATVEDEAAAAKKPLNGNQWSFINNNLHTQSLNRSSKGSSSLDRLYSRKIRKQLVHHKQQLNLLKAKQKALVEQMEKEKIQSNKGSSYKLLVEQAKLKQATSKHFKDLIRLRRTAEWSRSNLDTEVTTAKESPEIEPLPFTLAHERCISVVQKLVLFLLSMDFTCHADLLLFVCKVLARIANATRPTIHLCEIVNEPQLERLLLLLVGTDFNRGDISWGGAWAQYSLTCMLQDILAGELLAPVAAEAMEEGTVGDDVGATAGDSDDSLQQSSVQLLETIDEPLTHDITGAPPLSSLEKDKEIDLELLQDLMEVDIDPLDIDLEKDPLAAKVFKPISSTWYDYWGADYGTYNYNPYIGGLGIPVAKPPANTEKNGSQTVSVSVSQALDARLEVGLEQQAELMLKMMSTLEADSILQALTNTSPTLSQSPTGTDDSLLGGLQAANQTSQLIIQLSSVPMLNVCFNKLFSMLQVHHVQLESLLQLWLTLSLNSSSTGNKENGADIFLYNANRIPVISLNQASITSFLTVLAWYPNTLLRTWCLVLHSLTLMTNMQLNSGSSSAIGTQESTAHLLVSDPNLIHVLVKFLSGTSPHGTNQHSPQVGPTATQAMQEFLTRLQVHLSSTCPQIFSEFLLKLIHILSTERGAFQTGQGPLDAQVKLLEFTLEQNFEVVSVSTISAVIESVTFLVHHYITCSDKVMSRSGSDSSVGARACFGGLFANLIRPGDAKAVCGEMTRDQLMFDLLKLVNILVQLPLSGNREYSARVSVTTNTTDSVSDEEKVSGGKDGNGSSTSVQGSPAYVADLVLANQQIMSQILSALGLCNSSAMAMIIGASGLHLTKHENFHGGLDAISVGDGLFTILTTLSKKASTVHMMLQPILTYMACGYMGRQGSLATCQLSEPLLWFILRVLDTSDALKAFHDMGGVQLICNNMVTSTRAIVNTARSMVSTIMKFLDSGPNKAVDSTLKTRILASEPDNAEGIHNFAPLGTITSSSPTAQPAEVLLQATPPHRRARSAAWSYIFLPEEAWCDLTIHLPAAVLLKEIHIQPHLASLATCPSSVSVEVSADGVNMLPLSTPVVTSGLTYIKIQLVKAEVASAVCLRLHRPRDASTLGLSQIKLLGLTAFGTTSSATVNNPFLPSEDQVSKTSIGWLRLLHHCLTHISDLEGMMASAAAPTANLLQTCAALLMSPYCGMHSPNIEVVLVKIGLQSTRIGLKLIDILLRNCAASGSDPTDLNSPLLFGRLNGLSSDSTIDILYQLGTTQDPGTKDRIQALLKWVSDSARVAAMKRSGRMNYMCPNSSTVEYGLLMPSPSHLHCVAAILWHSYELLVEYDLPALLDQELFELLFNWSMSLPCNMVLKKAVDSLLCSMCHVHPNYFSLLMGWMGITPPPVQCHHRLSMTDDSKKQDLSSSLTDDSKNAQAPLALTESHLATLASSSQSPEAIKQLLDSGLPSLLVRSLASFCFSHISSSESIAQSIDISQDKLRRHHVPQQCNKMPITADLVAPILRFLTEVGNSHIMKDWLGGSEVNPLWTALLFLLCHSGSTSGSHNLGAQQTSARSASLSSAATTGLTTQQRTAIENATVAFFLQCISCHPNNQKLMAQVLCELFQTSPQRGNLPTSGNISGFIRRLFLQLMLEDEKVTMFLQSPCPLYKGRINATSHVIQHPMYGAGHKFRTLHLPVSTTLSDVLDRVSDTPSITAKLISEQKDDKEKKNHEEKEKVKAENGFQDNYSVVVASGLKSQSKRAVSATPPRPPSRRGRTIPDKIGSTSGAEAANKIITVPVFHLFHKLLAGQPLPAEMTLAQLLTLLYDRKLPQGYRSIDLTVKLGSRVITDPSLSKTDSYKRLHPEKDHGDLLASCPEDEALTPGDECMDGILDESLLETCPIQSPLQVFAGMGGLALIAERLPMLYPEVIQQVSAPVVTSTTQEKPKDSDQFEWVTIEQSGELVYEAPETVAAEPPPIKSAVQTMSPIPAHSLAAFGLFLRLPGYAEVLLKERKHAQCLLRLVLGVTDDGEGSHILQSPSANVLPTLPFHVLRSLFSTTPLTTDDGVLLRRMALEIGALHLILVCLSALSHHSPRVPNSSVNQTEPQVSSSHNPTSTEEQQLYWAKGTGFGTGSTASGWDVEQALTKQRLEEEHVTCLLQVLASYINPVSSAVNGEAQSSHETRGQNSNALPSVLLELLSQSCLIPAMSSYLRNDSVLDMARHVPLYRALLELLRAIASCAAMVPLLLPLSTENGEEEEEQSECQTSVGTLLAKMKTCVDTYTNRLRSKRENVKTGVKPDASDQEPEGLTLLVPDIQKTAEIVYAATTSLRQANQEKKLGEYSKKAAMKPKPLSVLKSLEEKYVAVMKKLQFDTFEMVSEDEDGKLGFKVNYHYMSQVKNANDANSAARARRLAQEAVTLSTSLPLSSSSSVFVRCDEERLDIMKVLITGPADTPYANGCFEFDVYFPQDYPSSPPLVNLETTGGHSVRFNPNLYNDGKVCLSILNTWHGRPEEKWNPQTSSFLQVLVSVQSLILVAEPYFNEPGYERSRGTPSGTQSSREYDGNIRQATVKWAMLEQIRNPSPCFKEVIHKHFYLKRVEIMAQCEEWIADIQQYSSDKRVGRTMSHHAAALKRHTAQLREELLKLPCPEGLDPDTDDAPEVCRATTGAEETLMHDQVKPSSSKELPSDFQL

Measured: binding

B1: Myc-USP8 (enzyme, UniProt P40818 1-1118)
chain: MPAVASVPKELYLSSSLKDLNKKTEVKPEKISTKSYVHSALKIFKTAEECRLDRDEERAYVLYMKYVTVYNLIKKRPDFKQQQDYFHSILGPGNIKKAVEEAERLSESLKLRYEEAEVRKKLEEKDRQEEAQRLQQKRQETGREDGGTLAKGSLENVLDSKDKTQKSNGEKNEKCETKEKGAITAKELYTMMTDKNISLIIMDARRMQDYQDSCILHSLSVPEEAISPGVTASWIEAHLPDDSKDTWKKRGNVEYVVLLDWFSSAKDLQIGTTLRSLKDALFKWESKTVLRNEPLVLEGGYENWLLCYPQYTTNAKVTPPPRRQNEEVSISLDFTYPSLEESIPSKPAAQTPPASIEVDENIELISGQNERMGPLNISTPVEPVAASKSDVSPIIQPVPSIKNVPQIDRTKKPAVKLPEEHRIKSESTNHEQQSPQSGKVIPDRSTKPVVFSPTLMLTDEEKARIHAETALLMEKNKQEKELRERQQEEQKEKLRKEEQEQKAKKKQEAEENEITEKQQKAKEEMEKKESEQAKKEDKETSAKRGKEITGVKRQSKSEHETSDAKKSVEDRGKRCPTPEIQKKSTGDVPHTSVTGDSGSGKPFKIKGQPESGILRTGTFREDTDDTERNKAQREPLTRARSEEMGRIVPGLPSGWAKFLDPITGTFRYYHSPTNTVHMYPPEMAPSSAPPSTPPTHKAKPQIPAERDREPSKLKRSYSSPDITQAIQEEEKRKPTVTPTVNRENKPTCYPKAEISRLSASQIRNLNPVFGGSGPALTGLRNLGNTCYMNSILQCLCNAPHLADYFNRNCYQDDINRSNLLGHKGEVAEEFGIIMKALWTGQYRYISPKDFKITIGKINDQFAGYSQQDSQELLLFLMDGLHEDLNKADNRKRYKEENNDHLDDFKAAEHAWQKHKQLNESIIVALFQGQFKSTVQCLTCHKKSRTFEAFMYLSLPLASTSKCTLQDCLRLFSKEEKLTDNNRFYCSHCRARRDSLKKIEIWKLPPVLLVHLKRFSYDGRWKQKLQTSVDFPLENLDLSQYVIGPKNNLKKYNLFSVSNHYGGLDGGHYTAYCKNAARQRWFKFDDHEVSDISVSSVKSSAAYILFYTSLGPRVTDVAT
binds: all assays above

B2: GFP-BRIT1 (protein, UniProt Q8NEM0 1-835)
chain: MAAPILKDVVAYVEVWSSNGTENYSKTFTTQLVDMGAKVSKTFNKQVTHVIFKDGYQSTWDKAQKRGVKLVSVLWVEKCRTAGAHIDESLFPAANMNEHLSSLIKKKRKCMQPKDFNFKTPENDKRFQKKFEKMAKELQRQKTNLDDDVPILLFESNGSLIYTPTIEINSRHHSAMEKRLQEMKEKRENLSPTSSQMIQQSHDNPSNSLCEAPLNISRDTLCSDEYFAGGLHSSFDDLCGNSGCGNQERKLEGSINDIKSDVCISSLVLKANNIHSSPSFTHLDKSSPQKFLSNLSKEEINLQRNIAGKVVTPDQKQAAGMSQETFEEKYRLSPTLSSTKGHLLIHSRPRSSSVKRKRVSHGSHSPPKEKCKRKRSTRRSIMPRLQLCRSEDRLQHVAGPALEALSCGESSYDDYFSPDNLKERYSENLPPESQLPSSPAQLSCRSLSKKERTSIFEMSDFSCVGKKTRTVDITNFTAKTISSPRKTGNGEGRATSSCVTSAPEEALRCCRQAGKEDACPEGNGFSYTIEDPALPKGHDDDLTPLEGSLEEMKEAVGLKSTQNKGTTSKISNSSEGEAQSEHEPCFIVDCNMETSTEEKENLPGGYSGSVKNRPTRHDVLDDSCDGFKDLIKPHEELKKSGRGKKPTRTLVMTSMPSEKQNVVIQVVDKLKGFSIAPDVCETTTHVLSGKPLRTLNVLLGIARGCWVLSYDWVLWSLELGHWISEEPFELSHHFPAAPLCRSECHLSAGPYRGTLFADQPAMFVSPASSPPVAKLCELVHLCGGRVSQVPRQASIVIGPYSGKKKATVKYLSEKWVLDSITQHKVCAPENYLLSQ
binds: all assays above

Source: publication PMC4684287
